In paper doi:10.1101/850776:
No constants are given. Whether binding was seen depends on the method and setting. In cells and extracts the contact can be indirect. Some results given as binding are weak or reduced against the parent protein; the word gives no strength. Tags and fused reporters may be left off the sequences shown.

T1: GFP-tagged mouse RHBDL4-SA (catalytically inactive serine-144-alanine mutant) (mouse) (UniProt Q8BHC7)
T1 sequence: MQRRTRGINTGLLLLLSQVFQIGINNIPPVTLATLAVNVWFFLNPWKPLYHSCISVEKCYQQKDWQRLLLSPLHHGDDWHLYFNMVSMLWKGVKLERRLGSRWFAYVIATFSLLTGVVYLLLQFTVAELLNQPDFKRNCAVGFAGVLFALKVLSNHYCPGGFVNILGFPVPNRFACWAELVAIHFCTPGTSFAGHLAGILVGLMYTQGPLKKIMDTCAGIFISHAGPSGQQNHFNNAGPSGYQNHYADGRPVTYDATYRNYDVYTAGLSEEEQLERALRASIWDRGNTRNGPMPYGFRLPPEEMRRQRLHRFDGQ

B1: RPN1 (protein, UniProt P04843 24-607)
chain: ASSEAPPLINEDVKRTVDLSSHLAKVTAEVVLAHLGGGSTSRATSFLLALEPELEARLAHLGVQVKGEDEEENNLEVRETKIKGKSGRFFTVKLPVALDPGAKISVIVETVYTHVLHPYPTQITQSEKQFVVFEGNHYFYSPYPTKTQTMRVKLASRNVESYTKLGNPTRSEDLLDYGPFRDVPAYSQDTFKVHYENNSPFLTITSMTRVIEVSHWGNIAVEENVDLKHTGAVLKGPFSRYDYQRQPDSGISSIRSFKTILPAAAQDVYYRDEIGNVSTSHLLILDDSVEMEIRPRFPLFGGWKTHYIVGYNLPSYEYLYNLGDQYALKMRFVDHVFDEQVIDSLTVKIILPEGAKNIEIDSPYEISRAPDELHYTYLDTFGRPVIVAYKKNLVEQHIQDIVVHYTFNKVLMLQEPLLVVAAFYILFFTVIIYVRLDFSITKDPAAEARMKVACITEQVLTLVNKRIGLYRHFDETVNRYKQSRDISTLNSGKKSLETEHKALTSEIALLQSRLKTEGSDLCDRVSEMQKLDAQVKELVLKSAVEAERLVAGKLKKDTYIENEKLISGKRQELVTKIDHILDAL
B2: STT3A (protein, UniProt P46977 1-705)
chain: MTKFGFLRLSYEKQDTLLKLLILSMAAVLSFSTRLFAVLRFESVIHEFDPYFNYRTTRFLAEEGFYKFHNWFDDRAWYPLGRIIGGTIYPGLMITSAAIYHVLHFFHITIDIRNVCVFLAPLFSSFTTIVTYHLTKELKDAGAGLLAAAMIAVVPGYISRSVAGSYDNEGIAIFCMLLTYYMWIKAVKTGSICWAAKCALAYFYMVSSWGGYVFLINLIPLHVLVLMLTGRFSHRIYVAYCTVYCLGTILSMQISFVGFQPVLSSEHMAAFGVFGLCQIHAFVDYLRSKLNPQQFEVLFRSVISLVGFVLLTVGALLMLTGKISPWTGRFYSLLDPSYAKNNIPIIASVSEHQPTTWSSYYFDLQLLVFMFPVGLYYCFSNLSDARIFIIMYGVTSMYFSAVMVRLMLVLAPVMCILSGIGVSQVLSTYMKNLDISRPDKKSKKQQDSTYPIKNEVASGMILVMAFFLITYTFHSTWVTSEAYSSPSIVLSARGGDGSRIIFDDFREAYYWLRHNTPEDAKVMSWWDYGYQITAMANRTILVDNNTWNNTHISRVGQAMASTEEKAYEIMRELDVSYVLVIFGGLTGYSSDDINKFLWMVRIGGSTDTGKHIKENDYYTPTGEFRVDREGSPVLLNCLMYKMCYYRFGQVYTEAKRPPGFDRVRNAEIGNKDFELDVLEEAYTTEHWLVRIYKVKDLDNRGLSRT

Target: T1, GFP-tagged mouse RHBDL4-SA (catalytically inactive serine-144-alanine mutant) (mouse)
Assay: co-IP

Row | binding | Binder
1 | binds | B1
2 | binds | B2
